Substitutions are numbered along the chain they refer to. No constants are given. Whether binding was seen depends on the method and setting. In cells and extracts the contact can be indirect. Some binding calls cover weakened binding; strength is not graded here. Sequences can lack the tags named with a protein.
How the values were obtained:
[1] = biological target: T1, HA-Amot-p130 (mouse (by the paper's numbering: Ser176 in mouse, Ser175 in human)) (UniProt Q8VHG2); test: co-IP; HepG2 cells co-transfected with YAP and an Amot allele, fractionated into cytoplasmic, nuclear and plasma membrane fractions; Amot IP of each fraction, anti-YAP immunoblot
T1 sequence: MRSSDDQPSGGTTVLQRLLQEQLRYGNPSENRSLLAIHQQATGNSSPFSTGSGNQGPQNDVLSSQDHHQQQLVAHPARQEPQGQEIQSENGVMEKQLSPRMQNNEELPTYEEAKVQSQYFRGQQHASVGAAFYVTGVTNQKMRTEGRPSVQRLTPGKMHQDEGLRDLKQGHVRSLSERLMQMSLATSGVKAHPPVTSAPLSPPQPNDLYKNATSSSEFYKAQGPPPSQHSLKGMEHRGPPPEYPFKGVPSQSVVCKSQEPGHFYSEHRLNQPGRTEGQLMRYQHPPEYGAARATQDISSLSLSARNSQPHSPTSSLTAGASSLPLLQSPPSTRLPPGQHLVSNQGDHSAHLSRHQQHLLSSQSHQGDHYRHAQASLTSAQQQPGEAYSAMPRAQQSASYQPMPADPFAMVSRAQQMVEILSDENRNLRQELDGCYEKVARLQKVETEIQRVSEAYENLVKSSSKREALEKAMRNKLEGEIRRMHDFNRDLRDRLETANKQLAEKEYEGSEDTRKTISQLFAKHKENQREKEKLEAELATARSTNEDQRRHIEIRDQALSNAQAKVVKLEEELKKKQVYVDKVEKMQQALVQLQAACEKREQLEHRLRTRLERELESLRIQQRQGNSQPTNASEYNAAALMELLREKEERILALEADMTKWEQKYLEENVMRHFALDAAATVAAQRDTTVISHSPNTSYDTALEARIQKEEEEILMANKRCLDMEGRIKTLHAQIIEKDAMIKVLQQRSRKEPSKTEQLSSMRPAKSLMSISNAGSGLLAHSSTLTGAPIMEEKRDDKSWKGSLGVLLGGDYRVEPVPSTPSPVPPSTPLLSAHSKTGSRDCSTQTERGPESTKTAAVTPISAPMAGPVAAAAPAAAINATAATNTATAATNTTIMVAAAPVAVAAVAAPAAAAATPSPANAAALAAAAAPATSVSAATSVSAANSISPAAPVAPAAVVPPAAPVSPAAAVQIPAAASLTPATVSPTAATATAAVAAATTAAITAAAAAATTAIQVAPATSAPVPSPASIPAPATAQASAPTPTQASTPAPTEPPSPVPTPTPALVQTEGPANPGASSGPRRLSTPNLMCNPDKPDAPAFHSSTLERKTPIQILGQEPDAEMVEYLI

The chains behind the UniProt entries cited, without tags or fusion partners.
UniProt P46937: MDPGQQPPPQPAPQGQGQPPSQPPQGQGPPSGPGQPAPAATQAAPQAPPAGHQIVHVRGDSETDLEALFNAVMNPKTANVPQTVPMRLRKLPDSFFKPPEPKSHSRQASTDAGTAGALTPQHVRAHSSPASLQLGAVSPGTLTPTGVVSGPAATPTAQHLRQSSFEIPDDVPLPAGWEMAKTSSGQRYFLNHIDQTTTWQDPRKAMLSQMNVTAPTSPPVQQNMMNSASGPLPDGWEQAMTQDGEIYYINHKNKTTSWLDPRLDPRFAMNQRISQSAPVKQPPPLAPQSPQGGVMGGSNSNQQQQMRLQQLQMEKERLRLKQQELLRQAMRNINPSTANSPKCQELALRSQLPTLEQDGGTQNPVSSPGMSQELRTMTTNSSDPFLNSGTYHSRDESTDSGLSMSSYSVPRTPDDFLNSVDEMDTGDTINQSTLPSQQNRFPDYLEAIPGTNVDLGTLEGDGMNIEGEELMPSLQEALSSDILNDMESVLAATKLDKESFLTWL

[2] = biological target: T2, HA-Amot-p130^S176A (mouse (by the paper's numbering: Ser176 in mouse, Ser175 in human)) (UniProt Q8VHG2); test: as above
T2 sequence: T1 sequence with S176A

[3] = biological target: T1, HA-Amot-p130 (mouse (by the paper's numbering: Ser176 in mouse, Ser175 in human)); test: co-IP; hSC2λ cells co-transfected with YAP and an Amot allele, fractionated into cytoplasmic, nuclear and plasma membrane fractions; Amot IP of each fraction, anti-YAP immunoblot
[4] = biological target: T2, HA-Amot-p130^S176A (mouse (by the paper's numbering: Ser176 in mouse, Ser175 in human)); test: as above

Measured: binding

V5-tagged YAP (from UniProt P46937 1-504)
binds: all assays above

— PMC5415356
